Tested on: CDC37-nanoKAZ
Test: Luminescence activity of CDC37-nanoKAZ in total cell lysates
Type: cell-based
Conditions: counter-test, same concentrations as interaction assay
Procedure: The luminescence activity of the cell lysates was determined using a Centro LB 960 Microplate Luminometer (Berthold Technologies, Bad Wildbad, Germany). A reaction mixture containing bis-coelenterazine (final concentration of 0.1–1 μg/100 μL) in PBS containing 0.02% Tween20 and 20 mM EDTA was injected. The luminescence intensity was recorded at 0.1 s intervals for 10 s or 10 min. The maximum luminescence intensity (Imax), represented in relative luminescence units (rlu), was used in the study.
Targeting the DYRK1A/CDC37 complex
(a-d) Luminescence intensities of total cell lysates of cells treated with the indicated […]
Figure 4. Luminescence intensities at each concentration are shown as fold-changes relative to that at 0 nM. Points are means ± SD (n = 3).
(1 picture or pasted object on this page, not shown here)
Luminescence intensities of total cell lysates of cells treated with the indicated concentrations of CaNDY, as also used in Figure 5c. Luminescence intensities at each concentration are shown as fold-changes to that at 0 nM. Points are means ± SD (n = 3).

CN[C@@H]1C[C@H]2O[C@@](C)([C@@H]1OC)n1c3ccccc3c3c4c(c5c6ccccc6n2c5c31)C(=O)NC4 [staurosporine]
inhibition of luminescence activity of CDC37-nanoKAZ: did not inhibit

From paper PMC4522657, “Identification of a DYRK1A Inhibitor that Induces Degradation of the Target Kinase using Co-chaperone CDC37 fused with Luciferase nanoKAZ” (Scientific Reports, 2015)
